The results in this text go back to doi:10.1101/2020.11.29.403196.

Chains of the proteins cited; added tags and fusions are not shown.
UniProt Q9WTX6: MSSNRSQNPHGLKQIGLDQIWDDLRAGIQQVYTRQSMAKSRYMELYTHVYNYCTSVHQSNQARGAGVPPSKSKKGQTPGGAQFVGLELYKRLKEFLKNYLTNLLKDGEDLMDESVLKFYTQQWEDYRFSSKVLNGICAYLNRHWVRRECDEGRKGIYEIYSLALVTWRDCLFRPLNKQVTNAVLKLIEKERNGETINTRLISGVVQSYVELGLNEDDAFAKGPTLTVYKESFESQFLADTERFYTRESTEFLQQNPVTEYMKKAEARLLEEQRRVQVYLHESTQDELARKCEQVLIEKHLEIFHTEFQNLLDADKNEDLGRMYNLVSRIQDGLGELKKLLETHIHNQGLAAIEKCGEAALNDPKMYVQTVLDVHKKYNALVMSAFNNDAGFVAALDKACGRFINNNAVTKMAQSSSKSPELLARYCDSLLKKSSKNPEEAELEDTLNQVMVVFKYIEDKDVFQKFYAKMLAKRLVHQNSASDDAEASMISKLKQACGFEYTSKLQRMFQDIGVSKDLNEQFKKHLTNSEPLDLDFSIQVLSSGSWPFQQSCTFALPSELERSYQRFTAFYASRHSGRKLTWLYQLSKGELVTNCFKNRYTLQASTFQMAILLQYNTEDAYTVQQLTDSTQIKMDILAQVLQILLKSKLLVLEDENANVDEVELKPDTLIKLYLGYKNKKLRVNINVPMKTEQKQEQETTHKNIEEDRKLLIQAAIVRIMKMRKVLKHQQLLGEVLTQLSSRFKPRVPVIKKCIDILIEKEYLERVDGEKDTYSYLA
UniProt Q62833: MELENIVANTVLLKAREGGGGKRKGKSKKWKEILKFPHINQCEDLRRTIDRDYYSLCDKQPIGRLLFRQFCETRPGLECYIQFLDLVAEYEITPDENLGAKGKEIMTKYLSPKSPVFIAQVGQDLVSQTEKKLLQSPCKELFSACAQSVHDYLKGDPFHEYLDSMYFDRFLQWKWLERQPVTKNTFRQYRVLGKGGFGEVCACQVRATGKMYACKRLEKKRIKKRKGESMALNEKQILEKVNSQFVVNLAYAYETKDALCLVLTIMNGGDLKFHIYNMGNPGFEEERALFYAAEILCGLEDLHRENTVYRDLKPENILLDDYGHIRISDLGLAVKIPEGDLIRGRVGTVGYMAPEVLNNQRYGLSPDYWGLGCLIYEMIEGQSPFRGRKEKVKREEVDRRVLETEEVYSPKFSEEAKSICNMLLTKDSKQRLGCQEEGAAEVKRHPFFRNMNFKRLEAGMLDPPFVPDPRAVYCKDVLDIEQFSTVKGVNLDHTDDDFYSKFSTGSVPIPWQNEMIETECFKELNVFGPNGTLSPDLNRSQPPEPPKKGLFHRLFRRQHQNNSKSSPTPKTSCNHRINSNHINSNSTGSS

Results are given in words; binding and its absence hold for the method and conditions named. Binding seen in cells or lysates may run through a third protein. Some results given as binding are weak or reduced against the parent protein; the word gives no strength.

For experiment [1], the target named is T1, Cullin-associated NEDD8-dissociated protein 2 (Cand2), mouse, endogenous (mouse (endogenous in neonatal mouse cardiomyocytes)) (UniProt Q6ZQ73).
T1 sequence: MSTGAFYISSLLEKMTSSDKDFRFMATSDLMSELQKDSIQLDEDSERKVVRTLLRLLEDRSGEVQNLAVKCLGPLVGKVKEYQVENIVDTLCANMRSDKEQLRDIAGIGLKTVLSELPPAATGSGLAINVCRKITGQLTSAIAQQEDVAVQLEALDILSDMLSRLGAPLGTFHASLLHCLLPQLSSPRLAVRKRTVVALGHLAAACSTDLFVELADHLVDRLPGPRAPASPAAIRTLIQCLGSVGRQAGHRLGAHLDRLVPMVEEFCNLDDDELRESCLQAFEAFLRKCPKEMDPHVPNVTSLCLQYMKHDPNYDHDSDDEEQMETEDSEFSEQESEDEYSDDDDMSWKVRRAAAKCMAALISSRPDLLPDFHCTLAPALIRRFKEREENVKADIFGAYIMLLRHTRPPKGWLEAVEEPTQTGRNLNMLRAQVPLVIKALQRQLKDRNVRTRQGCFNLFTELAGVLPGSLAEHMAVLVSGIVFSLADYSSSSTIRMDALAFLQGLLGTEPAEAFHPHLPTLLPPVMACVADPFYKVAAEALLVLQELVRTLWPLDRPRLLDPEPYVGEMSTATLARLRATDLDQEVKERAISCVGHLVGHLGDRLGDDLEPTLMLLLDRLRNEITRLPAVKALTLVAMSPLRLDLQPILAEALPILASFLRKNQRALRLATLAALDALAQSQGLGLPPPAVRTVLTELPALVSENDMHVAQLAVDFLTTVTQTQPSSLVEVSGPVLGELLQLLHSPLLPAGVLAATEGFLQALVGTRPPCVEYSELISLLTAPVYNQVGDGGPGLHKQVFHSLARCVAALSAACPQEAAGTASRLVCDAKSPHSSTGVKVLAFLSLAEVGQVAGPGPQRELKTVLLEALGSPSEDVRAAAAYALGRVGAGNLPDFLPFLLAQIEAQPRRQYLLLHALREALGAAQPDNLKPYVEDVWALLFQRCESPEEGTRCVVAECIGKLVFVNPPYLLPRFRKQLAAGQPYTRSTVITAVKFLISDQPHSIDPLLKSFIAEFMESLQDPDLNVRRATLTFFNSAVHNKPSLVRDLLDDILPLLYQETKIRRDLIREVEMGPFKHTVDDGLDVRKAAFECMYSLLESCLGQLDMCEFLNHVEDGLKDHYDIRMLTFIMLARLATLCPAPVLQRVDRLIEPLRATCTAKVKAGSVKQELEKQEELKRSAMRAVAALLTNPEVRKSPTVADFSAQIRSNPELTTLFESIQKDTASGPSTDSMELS
Kind of experiment: proximity ligation.

The target of experiment [2] is T2, Cullin-associated NEDD8-dissociated protein 2 (Cand2), rat, endogenous (rat (endogenous in neonatal rat ventricular cardiomyocytes)) (UniProt Q9R0L4).
T2 sequence: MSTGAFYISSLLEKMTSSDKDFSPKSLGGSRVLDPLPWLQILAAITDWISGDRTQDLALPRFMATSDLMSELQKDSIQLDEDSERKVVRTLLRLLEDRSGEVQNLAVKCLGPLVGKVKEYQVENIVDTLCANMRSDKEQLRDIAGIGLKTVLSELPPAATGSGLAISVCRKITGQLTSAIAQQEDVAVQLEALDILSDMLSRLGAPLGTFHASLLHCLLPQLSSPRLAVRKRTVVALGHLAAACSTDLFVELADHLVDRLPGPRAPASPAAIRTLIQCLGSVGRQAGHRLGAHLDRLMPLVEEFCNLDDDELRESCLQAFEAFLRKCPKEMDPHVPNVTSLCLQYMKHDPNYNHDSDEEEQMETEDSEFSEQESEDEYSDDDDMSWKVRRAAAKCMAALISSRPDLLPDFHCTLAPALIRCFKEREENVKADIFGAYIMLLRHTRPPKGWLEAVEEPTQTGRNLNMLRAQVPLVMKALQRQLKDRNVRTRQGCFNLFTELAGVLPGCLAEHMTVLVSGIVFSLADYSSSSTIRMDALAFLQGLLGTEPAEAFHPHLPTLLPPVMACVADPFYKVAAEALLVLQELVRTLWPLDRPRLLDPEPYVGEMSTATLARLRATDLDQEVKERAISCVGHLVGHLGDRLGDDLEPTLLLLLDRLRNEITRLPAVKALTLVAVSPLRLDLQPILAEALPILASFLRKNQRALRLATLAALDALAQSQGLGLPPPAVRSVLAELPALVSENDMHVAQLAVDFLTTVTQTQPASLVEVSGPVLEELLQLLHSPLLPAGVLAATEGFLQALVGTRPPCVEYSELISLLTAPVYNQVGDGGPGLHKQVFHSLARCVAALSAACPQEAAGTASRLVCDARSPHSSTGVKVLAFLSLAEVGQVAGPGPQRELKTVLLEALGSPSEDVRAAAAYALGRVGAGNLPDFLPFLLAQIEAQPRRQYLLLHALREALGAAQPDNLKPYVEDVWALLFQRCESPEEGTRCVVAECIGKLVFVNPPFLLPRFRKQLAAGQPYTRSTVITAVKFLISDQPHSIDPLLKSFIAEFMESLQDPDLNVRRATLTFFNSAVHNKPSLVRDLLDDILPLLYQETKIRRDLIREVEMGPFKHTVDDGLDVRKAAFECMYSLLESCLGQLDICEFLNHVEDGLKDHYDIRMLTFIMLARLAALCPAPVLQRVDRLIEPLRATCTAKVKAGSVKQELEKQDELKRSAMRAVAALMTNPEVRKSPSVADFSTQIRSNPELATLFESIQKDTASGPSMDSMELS
Kind of experiment: proximity ligation.

Experiment [3] concerns the target T2, Cullin-associated NEDD8-dissociated protein 2 (Cand2), rat, endogenous (rat (endogenous in neonatal rat ventricular cardiomyocytes)). The experiment can be described thus: co-IP.

Turning to “Cullin1, mouse, endogenous (from UniProt Q9WTX6 1-776)”, the binding entry in experiment [1] is “binds”.
Consider “G-protein coupled receptor kinase 5 (Grk5), rat, endogenous (from UniProt Q62833 1-590) (enzyme)”, for which the binding result in experiment [2] and in experiment [3] was “binds” in each case.
